Results are given in words; binding and its absence hold for the method and conditions named. In cells and extracts the contact can be indirect. Some entries that bind do so weakly or less than the wild type.
Biological target: HAF-NS2 (HCV NS2 of JFH1ad_HAF-NS2EI3, carrying a HA-Flag epitope sequence) (Hepatitis C virus genotype 2a (JFH1)) (UniProt Q99IB8)
Experiment: co-IP; HA-specific immunoprecipitation of HAF-NS2 from lysates of Huh7.5 cells 72 h after transfection with JFH1ad_HAF-NS2EI3 RNA (wild type or NS3 mutant); co-immunoprecipitated NS3 detected by Western blot; genome without HA-Flag tag and mock cells as negative controls

Amino acid sequences for entries named in this document (tags omitted). Residues count along the entry.
HAF-NS2 (HCV NS2 of JFH1ad_HAF-NS2EI3, carrying a HA-Flag epitope sequence) (Hepatitis C virus genotype 2a (JFH1)) (Q99IB8, residues 814-1030): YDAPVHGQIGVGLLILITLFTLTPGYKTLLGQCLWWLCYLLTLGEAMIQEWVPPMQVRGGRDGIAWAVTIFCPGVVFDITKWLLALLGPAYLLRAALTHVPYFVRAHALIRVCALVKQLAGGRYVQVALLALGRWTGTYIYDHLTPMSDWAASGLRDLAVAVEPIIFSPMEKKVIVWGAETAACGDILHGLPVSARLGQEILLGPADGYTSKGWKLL
NS3 (wild type) of JFH1ad_HAF-NS2EI3 (Q99IB8, residues 1031-1661): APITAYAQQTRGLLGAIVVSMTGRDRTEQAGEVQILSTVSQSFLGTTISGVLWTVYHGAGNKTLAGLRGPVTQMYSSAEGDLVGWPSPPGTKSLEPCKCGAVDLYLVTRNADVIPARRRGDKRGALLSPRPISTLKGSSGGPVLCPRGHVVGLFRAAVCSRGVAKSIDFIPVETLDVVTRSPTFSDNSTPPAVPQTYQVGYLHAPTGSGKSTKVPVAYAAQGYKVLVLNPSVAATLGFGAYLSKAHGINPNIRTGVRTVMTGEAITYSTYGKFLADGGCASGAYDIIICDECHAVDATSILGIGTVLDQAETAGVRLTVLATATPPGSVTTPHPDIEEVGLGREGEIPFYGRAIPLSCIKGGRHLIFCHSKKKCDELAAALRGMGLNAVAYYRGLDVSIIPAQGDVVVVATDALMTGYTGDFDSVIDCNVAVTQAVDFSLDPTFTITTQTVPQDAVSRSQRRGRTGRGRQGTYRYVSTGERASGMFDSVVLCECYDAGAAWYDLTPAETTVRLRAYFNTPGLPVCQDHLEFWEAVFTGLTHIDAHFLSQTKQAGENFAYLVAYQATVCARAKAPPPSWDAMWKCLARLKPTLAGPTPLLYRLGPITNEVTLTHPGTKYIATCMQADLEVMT

NS3 (wild type) of JFH1ad_HAF-NS2EI3 (from UniProt Q99IB8 1031-1661)
binding: binds

Source: paper PMC4361677
